From PubChem BioAssay AID1794844 (National Center for Advancing Translational Sciences (NCATS), 2023)
The campaign covered roughly 2,800 compounds. Fewer than 10 were called active. Another 7% or so got no clear call; they are omitted. Calls follow the shape of the dose curve; as a rule, active = well fitted inhibition curve with a large enough effect; inconclusive = small, poorly fitted or top-dose-only effect; inactive = no such curve, though single readings can be large or run the other way. Some of the results follow.

Protein sequences, listed by entry. Tags and fused reporters are not part of them. Lines headed by an entry give the natural chain unless they say otherwise; changes in a name come on top.
UniProt C7C422: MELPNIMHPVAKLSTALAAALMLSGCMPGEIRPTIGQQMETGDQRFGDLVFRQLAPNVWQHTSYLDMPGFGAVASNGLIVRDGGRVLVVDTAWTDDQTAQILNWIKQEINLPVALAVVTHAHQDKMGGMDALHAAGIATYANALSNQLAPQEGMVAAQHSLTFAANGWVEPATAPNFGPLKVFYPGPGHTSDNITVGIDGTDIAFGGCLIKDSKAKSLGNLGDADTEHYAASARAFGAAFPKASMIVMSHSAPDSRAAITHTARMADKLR

molecular target: Metallo-beta-lactamase type 2 (Klebsiella pneumoniae) (UniProt C7C422); assay: qHTS to identify inhibitors of the New Delhi Metallo-beta-lactamase (NDM): Nitrocefin screen against the machine-based learning selections.; also: % of control where 0% means no effect; details: NDM-1 enzyme, nitrocefin hydrolysis, absorbance 485 nm; at 57.5 µM (top of the series) unless noted
Procedure, shortened: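 Hydrolysis by 2 nM NDM-1 was followed by absorbance after >30 min compound preincubation in HEPES pH 7.0 buffer with 1 uM Zn2SO4. For nitrocefin (16.7 uM, 15 min, 485 nm) and meropenem (50 uM, 30 min, 300 nm), each substrate ran on separate plates.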

For `CN(CCc1ccccn1)C[C@H]1CN2CC[C@H]1C[C@@H]2CNC(=O)c1ccc(C(F)(F)F)cc1`, which activity, negative = inhibition is on record?
Its activity, negative = inhibition is inactive: 1.27% [at 38.4 µM].

Which activity, negative = inhibition does the source give for `CCC(CC)c1cc([C@H]2CN3CC[C@H]2C[C@@H]3CNC(=O)COc2ccccc2)nc(-c2ccncc2)n1` here?
The activity, negative = inhibition was inactive: 65.9% [at 38.4 µM].

With `O=C(Cc1cccnc1)N1[C@H]2CC[C@@H]1c1cnc(-c3ccc(F)cc3)nc1C2` as the compound, how does the activity, negative = inhibition read?
Its activity, negative = inhibition is inactive: -4.53% [at 38.4 µM].

For `C#C[C@H]1CN2CC[C@H]1C[C@@H]2CNC(=O)Nc1cccc(SC)c1`, which activity, negative = inhibition is on record?
The activity, negative = inhibition was inactive: -8.11%.

For `COc1ccc(C(=O)NC[C@H]2C[C@@H]3CCN2C[C@@H]3c2cc(-c3ccc(N(C)C)cc3)nc(C)n2)cc1`, which activity, negative = inhibition is on record?
The activity, negative = inhibition was inactive: 4.09% [at 38.4 µM].

Which activity, negative = inhibition does the source give for `C#CCN(C)C[C@H]1CN2CC[C@H]1C[C@@H]2CNC(=O)Nc1ccc(C(C)=O)cc1` here?
Its activity, negative = inhibition is inactive: 1.06%.

Which activity, negative = inhibition does the source give for `C=C[C@H]1CN2CC[C@H]1C[C@@H]2CNS(=O)(=O)c1cccs1` here?
The activity, negative = inhibition was inactive: 11.5%.

`CC(C)NC(=O)[C@H]1CN2CC[C@H]1C[C@@H]2Cn1cc(CO)nn1` was tested. Which activity, negative = inhibition did it give?
The activity, negative = inhibition was inactive: -2.26%.

`O=C(NCc1ccc(F)cc1)[C@H]1CN2CC[C@H]1C[C@@H]2Cn1cc(C2(O)CCCC2)nn1` was tested. Which activity, negative = inhibition did it give?
Its activity, negative = inhibition is inactive: 0.796%.

How did the activity, negative = inhibition turn out when `Cc1nc(-c2ccco2)cc([C@H]2CN3CC[C@H]2C[C@@H]3CNC(=O)C(C)(C)C)n1` was run?
The activity, negative = inhibition was inactive: 0.498%.

For `Cc1nc(-c2ccccc2Br)cc([C@H]2CN3CC[C@H]2C[C@@H]3CNC(=O)c2cccs2)n1`, which activity, negative = inhibition is on record?
Its activity, negative = inhibition is inactive: -0.933% [at 38.4 µM].

Which activity, negative = inhibition does the source give for `C=CCN(C)C(=O)[C@H]1CN2CCC1C[C@@H]2Cn1cc(CO)nn1` (some centres undefined) here?
Its activity, negative = inhibition is inactive: -7.21%.

For `O=C1N(Cc2cccnc2)C[C@H]2CN(C3CCOCC3)CCN12`, which activity, negative = inhibition is on record?
Its activity, negative = inhibition is inactive: -4.41%.

For `CCNC(=O)NC[C@H]1C[C@@H]2CCN1C[C@@H]2c1cc(C2CCCCC2)nn1C`, which activity, negative = inhibition is on record?
Its activity, negative = inhibition is inactive: 1.2%.

`CCCS(=O)(=O)N1C[C@@H]2C[C@H](C1)c1ccc(-c3ccc4ccccc4c3)c(=O)n1C2` was tested. Which activity, negative = inhibition did it give?
The activity, negative = inhibition was inactive: -3.88%.

With `CC(=O)N1C[C@@H]2C[C@H](C1)c1ccc(NC(=O)Nc3ccccc3)c(=O)n1C2` as the compound, how does the activity, negative = inhibition read?
Its activity, negative = inhibition is inactive: -10.9%.

`CCCS(=O)(=O)Nc1ccc(=O)n2c1[C@@H]1C[C@@H](CN(C(=O)c3ccc(F)cc3)C1)C2` was tested. Which activity, negative = inhibition did it give?
Its activity, negative = inhibition is inactive: -2.95%.

`COCCNC(=O)[C@H]1CN2CCC1C[C@@H]2Cn1cc(CCO)nn1` (some centres undefined) was tested. Which activity, negative = inhibition did it give?
The activity, negative = inhibition was inactive: 0.0925%.

Which activity, negative = inhibition does the source give for `O=C(O)c1cn(Cc2ccc(F)cc2)nn1` here?
Its activity, negative = inhibition is inactive: -18.5% [at 38.4 µM].

How did the activity, negative = inhibition turn out when `O=C(NC[C@H]1C[C@@H]2CCN1C[C@@H]2CN1CCN(c2ccc(F)cc2)CC1)c1ccco1` was run?
Its activity, negative = inhibition is inactive: 0.284%.

`CC[C@H]1CN2CC[C@H]1C[C@@H]2CNS(=O)(=O)c1ccc(NC(C)=O)cc1` was tested. Which activity, negative = inhibition did it give?
The activity, negative = inhibition was inactive: 10.9%.

`CCCCc1cn(C[C@H]2CC3CCN2C[C@@H]3C(=O)NCc2ccc3c(c2)OCO3)nn1` (some centres undefined) was tested. Which activity, negative = inhibition did it give?
The activity, negative = inhibition was inactive: -7.49%.

How did the activity, negative = inhibition turn out when `CC(C)(C)c1ccc(NC(=O)OC[C@H]2C[C@@H]3CCN2C[C@@H]3c2cc(C3CCCC3)nc(-c3ccncc3)n2)cc1` was run?
The activity, negative = inhibition was inactive: 13.3% [at 38.4 µM].

With `O=C(Cc1ccc(F)cc1Cl)N1C[C@H]2CC[C@@H]1CN(Cc1cccnc1)C2` as the compound, how does the activity, negative = inhibition read?
Its activity, negative = inhibition is inactive: -6.78% [at 38.4 µM].

For `CC[C@H]1CN2CC[C@H]1C[C@@H]2CNC(=O)c1ccc(-c2ccccc2)cc1`, which activity, negative = inhibition is on record?
The activity, negative = inhibition was inactive: -0.226%.

With `C=C[C@H]1CN2CC[C@H]1C[C@@H]2CNC(=O)Nc1ccc(C(C)(C)C)cc1` as the compound, how does the activity, negative = inhibition read?
The activity, negative = inhibition was inactive: -15%.

Which activity, negative = inhibition does the source give for `Cc1nc(-c2ccc(C(F)(F)F)cc2)cc([C@H]2CN3CC[C@H]2C[C@@H]3CNC(=O)N2CCOCC2)n1` here?
The activity, negative = inhibition was inactive: 1.53% [at 38.4 µM].

Which activity, negative = inhibition does the source give for `Cn1nc(-c2ccccc2)cc1[C@H]1CN2CC[C@H]1C[C@@H]2CNC(=O)c1ccco1` here?
The activity, negative = inhibition was inactive: -7.49%.

With `CCNC(=O)NC[C@H]1C[C@@H]2CCN1C[C@@H]2c1cc(-c2ccc(F)cc2)nn1C` as the compound, how does the activity, negative = inhibition read?
The activity, negative = inhibition was inactive: 0.558%.
